Some results were stated once for a whole list of compounds, not compound by compound.
Test system: Caulobacter cresentus
Assay type: cell-based
Conditions: read-out: IC50 cell growth inhibition

Question: Which IC50 does the source give for “6-N-(diphenylborinic ester)-ethyl-9-(ethyl-2-acrylate)-methyl-adenine [Compound 3e]” here?
Answer: Its IC50 is < 25 µM.

Question: “6-N-(diphenylborinic ester)-ethyl-9-(2-(4-morpholinyl)-ethyl)-adenine [Compound 3b]” was tested. Which IC50 did it give?
Answer: Its IC50 is < 25 µM.

Question: How did the IC50 turn out when “6-N-(diphenylborinic ester)-ethyl-9-(2-(2-(2-hydroxyethoxy)ethoxy)ethyl)-adenine [Compound 3d]” was run?
Answer: Its IC50 is < 25 µM.

Question: “6-N-(diphenylborinic ester)-ethyl-9-(3-(N-phthaloyl)-aminopropyl)-adenine [Compound 3c]” was tested. Which IC50 did it give?
Answer: The IC50 was < 25 µM.

Question: For “6-N-(diphenylborinic ester)-ethyl-adenine [Compound 3a]”, which IC50 is on record?
Answer: Its IC50 is < 25 µM.

Test system: Bacillus subtilis
Assay type: cell-based
Conditions: read-out: IC50 cell growth inhibition

Question: Which IC50 does the source give for “6-N-(diphenylborinic ester)-ethyl-9-(2-(4-morpholinyl)-ethyl)-adenine [Compound 3b]” here?
Answer: The IC50 was 1 to 10 µM.

Question: For “6-N-(diphenylborinic ester)-ethyl-9-(2-(2-(2-hydroxyethoxy)ethoxy)ethyl)-adenine [Compound 3d]”, which IC50 is on record?
Answer: The IC50 was 10 to 50 µM.

Question: “6-N-(diphenylborinic ester)-ethyl-adenine [Compound 3a]” was tested. Which IC50 did it give?
Answer: Its IC50 is 10 to 50 µM.

Test system: Agrobacterium tumefaciens
Assay type: cell-based
Conditions: read-out: IC50 cell growth inhibition

Question: “6-N-(diphenylborinic ester)-ethyl-9-(ethyl-2-acrylate)-methyl-adenine [Compound 3e]” was tested. Which IC50 did it give?
Answer: Its IC50 is < 25 µM.

Question: “6-N-(diphenylborinic ester)-ethyl-9-(2-(2-(2-hydroxyethoxy)ethoxy)ethyl)-adenine [Compound 3d]” was tested. Which IC50 did it give?
Answer: Its IC50 is < 25 µM.

Test system: bacterial cells expressing an adenine DNA methyltransferase
Assay type: cell-based, Caulobacter
Conditions: not given

Question: Which “inhibited bacterial cell growth at an estimated concentration” value (“inhibited bacterial cell growth” for short) does the source give for “6-N-(diphenylborinic ester)-ethyl-9-(ethyl-2-acrylate)-methyl-adenine [Compound 3e]” here?
Answer: Its value is < 100 µM.

Question: Which “inhibited bacterial cell growth” value does the source give for “6-N-(diphenylborinic ester)-ethyl-9-(2-(4-morpholinyl)-ethyl)-adenine [Compound 3b]” here?
Answer: Its value is < 100 µM.

Question: “6-N-(diphenylborinic ester)-ethyl-9-(2-(2-(2-hydroxyethoxy)ethoxy)ethyl)-adenine [Compound 3d]” was tested. Which “inhibited bacterial cell growth” value did it give?
Answer: The value was < 100 µM.

Question: “6-N-(diphenylborinic ester)-ethyl-9-(3-(N-phthaloyl)-aminopropyl)-adenine [Compound 3c]” was tested. Which “inhibited bacterial cell growth” value did it give?
Answer: Its value is < 100 µM.

Question: With “6-N-(diphenylborinic ester)-ethyl-adenine [Compound 3a]” as the substance, how does the “inhibited bacterial cell growth” value read?
Answer: The value was < 100 µM.

Test system: Helicobacter pylori
Assay type: cell-based
Conditions: read-out: IC50 cell growth inhibition

Question: Which IC50 does the source give for “6-N-(diphenylborinic ester)-ethyl-9-(2-(4-morpholinyl)-ethyl)-adenine [Compound 3b]” here?
Answer: Its IC50 is < 25 µM.

Question: How did the IC50 turn out when “6-N-(diphenylborinic ester)-ethyl-9-(2-(2-(2-hydroxyethoxy)ethoxy)ethyl)-adenine [Compound 3d]” was run?
Answer: Its IC50 is 25 to 100 µM.

Question: With “6-N-(diphenylborinic ester)-ethyl-9-(3-(N-phthaloyl)-aminopropyl)-adenine [Compound 3c]” as the substance, how does the IC50 read?
Answer: The IC50 was 25 to 100 µM.

Question: For “6-N-(diphenylborinic ester)-ethyl-adenine [Compound 3a]”, which IC50 is on record?
Answer: The IC50 was < 25 µM.
